Assay results as given in publication PMC8627553.
Results are given in words; binding and its absence hold for the method and conditions named. Binding seen in cells or lysates may run through a third protein. Some results given as binding are weak or reduced against the parent protein; the word gives no strength. Where a sequence is shown, tags or fusion partners need not be part of it.

The chains behind the UniProt entries cited, without tags or fusion partners.
UniProt P0CW70: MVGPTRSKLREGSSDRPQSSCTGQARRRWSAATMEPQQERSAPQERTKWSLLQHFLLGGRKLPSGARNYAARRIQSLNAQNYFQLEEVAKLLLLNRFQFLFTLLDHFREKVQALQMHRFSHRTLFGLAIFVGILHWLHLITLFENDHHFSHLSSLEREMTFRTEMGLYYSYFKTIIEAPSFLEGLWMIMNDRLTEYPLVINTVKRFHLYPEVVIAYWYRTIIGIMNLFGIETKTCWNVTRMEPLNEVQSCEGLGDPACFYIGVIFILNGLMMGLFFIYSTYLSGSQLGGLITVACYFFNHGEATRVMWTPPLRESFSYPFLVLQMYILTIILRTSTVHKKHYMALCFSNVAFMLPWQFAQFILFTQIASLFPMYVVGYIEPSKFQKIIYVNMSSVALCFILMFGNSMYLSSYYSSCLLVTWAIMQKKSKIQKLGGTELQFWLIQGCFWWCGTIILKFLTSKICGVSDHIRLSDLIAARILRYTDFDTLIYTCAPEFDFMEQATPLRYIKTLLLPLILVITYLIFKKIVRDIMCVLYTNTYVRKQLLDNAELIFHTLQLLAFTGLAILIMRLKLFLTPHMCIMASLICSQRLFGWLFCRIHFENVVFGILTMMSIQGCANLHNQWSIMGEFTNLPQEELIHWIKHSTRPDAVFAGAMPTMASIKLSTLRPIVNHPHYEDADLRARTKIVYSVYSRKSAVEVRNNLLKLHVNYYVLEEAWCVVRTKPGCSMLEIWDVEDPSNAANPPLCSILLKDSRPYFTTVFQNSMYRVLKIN

T1: FAM209-FLAG (family with sequence similarity 209, FLAG knock-in) (mouse (endogenous in testis)) (UniProt A2APA5)
T1 sequence: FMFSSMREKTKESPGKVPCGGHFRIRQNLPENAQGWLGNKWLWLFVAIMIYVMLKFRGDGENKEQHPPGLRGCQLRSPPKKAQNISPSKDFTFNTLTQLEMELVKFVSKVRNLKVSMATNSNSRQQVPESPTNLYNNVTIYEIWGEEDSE


Molecular target: T1, FAM209-FLAG (family with sequence similarity 209, FLAG knock-in) (mouse (endogenous in testis))
Assay: co-IP; anti-FLAG immunoprecipitation of FAM209-FLAG from testis lysate (CHAPS buffer), western blot with anti-DPY19L2 or anti-CLGN

Row | Molecule | binding
1 | Probable C-mannosyltransferase DPY19L2 (from UniProt P0CW70 1-773) | binds
2 | calmegin (CLGN) (protein, UniProt P52194 20-611) DFMDDGVEVEDFSENSDESNIKDEPSSGTFKYKTPQPIGEVYFTETFDSGNLAGWVLSKAKKDDMDSEIAIYDGRWEIEELKENQVPGDRGLVLKSKAKHHAIAAVLEKPFIFADKPLIVQYEVNFQDGIDCGGAYIKLLADTGDLILENFYDKTSYTIMFGPDKCGEDYKLHLIFRHKHPKTGVFEEKHAKPPDVDLKEFFTDRKTHLYTLVMNPDDTFEVLIDQKVVNQGTLLDDVVPPINPPREIDDPSDKKPEEWDDRAKIPDPTAVRPEDWDENEPAQIEDSSAVKPDGWLDDEPKFIPNPKAEKPEDWSDDMDGEWEAPHIPNPACQIGCGEWKPPMIDNPKYKGIWRPPMINNPNYQGLWSPQKIPNPDYFEDDHPFLLTSFSALGLELWSMTPDIYFDNFIICSEKEVADQWATDGWELKIMVANANEPGVLRQLVIAAEERPWLWLMYLVMAGLPVALVASFCWPRKVKKKYEDTGPKKTELCKLQSKAALEQEAEEEKAPEKPEDVQEEKKPGEAEVVTVEKEVIGEPEEKSKEDRETLEGQEEVSKLSKSGSEDEMKDADESPGSGDAPLKSLRKRRVRKD | binds
